Laboratory results reported in PMC4427131.
No constants are given. Whether binding was seen depends on the method and setting. Binding seen in cells or lysates may run through a third protein. Some results given as binding are weak or reduced against the parent protein; the word gives no strength.

The chains behind the UniProt entries cited, without tags or fusion partners. Residues count along the entry.
UniProt P17181, residues 28-557: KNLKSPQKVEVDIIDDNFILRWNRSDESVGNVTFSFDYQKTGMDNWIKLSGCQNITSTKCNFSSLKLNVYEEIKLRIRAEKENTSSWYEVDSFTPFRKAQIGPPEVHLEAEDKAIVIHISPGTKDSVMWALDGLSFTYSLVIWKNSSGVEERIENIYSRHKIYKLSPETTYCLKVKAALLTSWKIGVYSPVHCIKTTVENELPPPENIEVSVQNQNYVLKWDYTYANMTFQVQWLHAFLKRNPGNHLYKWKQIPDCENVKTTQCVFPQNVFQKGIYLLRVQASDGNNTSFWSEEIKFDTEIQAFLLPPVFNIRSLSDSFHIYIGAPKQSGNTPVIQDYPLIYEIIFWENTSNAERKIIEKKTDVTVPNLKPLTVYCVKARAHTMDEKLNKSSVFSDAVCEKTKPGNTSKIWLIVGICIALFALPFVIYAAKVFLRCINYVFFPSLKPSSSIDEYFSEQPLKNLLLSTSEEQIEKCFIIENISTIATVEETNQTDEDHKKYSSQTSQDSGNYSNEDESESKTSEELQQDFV
UniProt P11142: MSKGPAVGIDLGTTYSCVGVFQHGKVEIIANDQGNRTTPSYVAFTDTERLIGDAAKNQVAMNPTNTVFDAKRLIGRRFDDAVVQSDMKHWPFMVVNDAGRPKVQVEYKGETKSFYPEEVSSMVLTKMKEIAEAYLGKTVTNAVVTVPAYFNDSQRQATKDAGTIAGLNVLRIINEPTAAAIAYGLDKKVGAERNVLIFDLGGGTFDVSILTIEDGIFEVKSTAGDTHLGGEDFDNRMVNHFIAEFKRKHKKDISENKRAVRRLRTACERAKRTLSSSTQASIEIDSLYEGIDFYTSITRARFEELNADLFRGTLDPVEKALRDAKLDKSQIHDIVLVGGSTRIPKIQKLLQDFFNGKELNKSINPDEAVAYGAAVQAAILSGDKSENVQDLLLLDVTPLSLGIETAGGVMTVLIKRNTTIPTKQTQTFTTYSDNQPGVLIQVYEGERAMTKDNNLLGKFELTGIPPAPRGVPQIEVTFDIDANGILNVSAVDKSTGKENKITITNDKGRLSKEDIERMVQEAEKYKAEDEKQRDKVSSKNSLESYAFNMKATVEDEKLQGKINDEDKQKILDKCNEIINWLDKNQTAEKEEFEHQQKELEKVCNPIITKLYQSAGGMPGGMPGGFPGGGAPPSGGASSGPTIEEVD

Target: Interferon-alpha receptor-1 (IFNAR1) (human (endogenous in Huh-7.5)) (UniProt P17181)
Experiment: co-IP; Huh-7.5 cells serum starved (12 hours in the methods, 4 hours in the results, six hours in the legend), lysed in RIPA buffer; 1 mg extract immunoprecipitated with anti-IFNAR1 or anti-IFNLR1 antibody overnight at 4°C, protein A/G plus-agarose, washed three times with RIPA buffer; blots for LAMP2A and HSC70

- binding: binds
Substance: heat-shock cognate protein HSC70 (from UniProt P11142 1-646)
